# Results reported in US20120245123A1, “METHODS FOR IMPROVING BONE HEALTH IN INFANTS USING PREBIOTICS” (ABBOTT LABORATORIES, priority 2011, published 2012).
# Assay: Maternal diet supplementation of pregnant and lactating rats: offspring body weight
# Format: in vivo, Sprague-Dawley rats
# Details: mean±SEM
smiles,measurement,setting,value
"O=C([O-])[O-].[Ca+2] [Calcium, calcium carbonate]",body weight of pups at delivery,"pups at delivery, p<0.05 vs Control group (8.65±0.12 g)",8.24 ± 0.10 g
same,body weight of pups at weaning,"pups at weaning (25-day-old), p<0.05 vs Control group (72.2±1.3 g)",62.0 ± 0.9 g
